Results: article PMC10703783
These are yes or no findings as the source states them, for the method shown. In cells and extracts the contact can be indirect. Some entries that bind do so weakly or less than the wild type.

Chains of the proteins cited; added tags and fusions are not shown.
UniProt Q00987: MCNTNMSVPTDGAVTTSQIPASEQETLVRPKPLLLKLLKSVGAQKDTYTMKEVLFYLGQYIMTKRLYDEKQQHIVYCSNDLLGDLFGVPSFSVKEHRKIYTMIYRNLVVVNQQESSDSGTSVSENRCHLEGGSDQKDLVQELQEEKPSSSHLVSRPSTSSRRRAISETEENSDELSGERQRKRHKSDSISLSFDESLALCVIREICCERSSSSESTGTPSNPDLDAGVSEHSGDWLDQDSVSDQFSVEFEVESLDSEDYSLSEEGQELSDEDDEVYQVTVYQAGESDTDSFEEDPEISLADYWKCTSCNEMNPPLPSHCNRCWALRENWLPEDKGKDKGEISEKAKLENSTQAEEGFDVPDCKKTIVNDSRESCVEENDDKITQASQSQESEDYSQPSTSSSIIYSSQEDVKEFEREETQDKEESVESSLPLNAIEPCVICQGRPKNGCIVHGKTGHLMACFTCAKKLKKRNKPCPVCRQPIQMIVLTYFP
UniProt Q14690: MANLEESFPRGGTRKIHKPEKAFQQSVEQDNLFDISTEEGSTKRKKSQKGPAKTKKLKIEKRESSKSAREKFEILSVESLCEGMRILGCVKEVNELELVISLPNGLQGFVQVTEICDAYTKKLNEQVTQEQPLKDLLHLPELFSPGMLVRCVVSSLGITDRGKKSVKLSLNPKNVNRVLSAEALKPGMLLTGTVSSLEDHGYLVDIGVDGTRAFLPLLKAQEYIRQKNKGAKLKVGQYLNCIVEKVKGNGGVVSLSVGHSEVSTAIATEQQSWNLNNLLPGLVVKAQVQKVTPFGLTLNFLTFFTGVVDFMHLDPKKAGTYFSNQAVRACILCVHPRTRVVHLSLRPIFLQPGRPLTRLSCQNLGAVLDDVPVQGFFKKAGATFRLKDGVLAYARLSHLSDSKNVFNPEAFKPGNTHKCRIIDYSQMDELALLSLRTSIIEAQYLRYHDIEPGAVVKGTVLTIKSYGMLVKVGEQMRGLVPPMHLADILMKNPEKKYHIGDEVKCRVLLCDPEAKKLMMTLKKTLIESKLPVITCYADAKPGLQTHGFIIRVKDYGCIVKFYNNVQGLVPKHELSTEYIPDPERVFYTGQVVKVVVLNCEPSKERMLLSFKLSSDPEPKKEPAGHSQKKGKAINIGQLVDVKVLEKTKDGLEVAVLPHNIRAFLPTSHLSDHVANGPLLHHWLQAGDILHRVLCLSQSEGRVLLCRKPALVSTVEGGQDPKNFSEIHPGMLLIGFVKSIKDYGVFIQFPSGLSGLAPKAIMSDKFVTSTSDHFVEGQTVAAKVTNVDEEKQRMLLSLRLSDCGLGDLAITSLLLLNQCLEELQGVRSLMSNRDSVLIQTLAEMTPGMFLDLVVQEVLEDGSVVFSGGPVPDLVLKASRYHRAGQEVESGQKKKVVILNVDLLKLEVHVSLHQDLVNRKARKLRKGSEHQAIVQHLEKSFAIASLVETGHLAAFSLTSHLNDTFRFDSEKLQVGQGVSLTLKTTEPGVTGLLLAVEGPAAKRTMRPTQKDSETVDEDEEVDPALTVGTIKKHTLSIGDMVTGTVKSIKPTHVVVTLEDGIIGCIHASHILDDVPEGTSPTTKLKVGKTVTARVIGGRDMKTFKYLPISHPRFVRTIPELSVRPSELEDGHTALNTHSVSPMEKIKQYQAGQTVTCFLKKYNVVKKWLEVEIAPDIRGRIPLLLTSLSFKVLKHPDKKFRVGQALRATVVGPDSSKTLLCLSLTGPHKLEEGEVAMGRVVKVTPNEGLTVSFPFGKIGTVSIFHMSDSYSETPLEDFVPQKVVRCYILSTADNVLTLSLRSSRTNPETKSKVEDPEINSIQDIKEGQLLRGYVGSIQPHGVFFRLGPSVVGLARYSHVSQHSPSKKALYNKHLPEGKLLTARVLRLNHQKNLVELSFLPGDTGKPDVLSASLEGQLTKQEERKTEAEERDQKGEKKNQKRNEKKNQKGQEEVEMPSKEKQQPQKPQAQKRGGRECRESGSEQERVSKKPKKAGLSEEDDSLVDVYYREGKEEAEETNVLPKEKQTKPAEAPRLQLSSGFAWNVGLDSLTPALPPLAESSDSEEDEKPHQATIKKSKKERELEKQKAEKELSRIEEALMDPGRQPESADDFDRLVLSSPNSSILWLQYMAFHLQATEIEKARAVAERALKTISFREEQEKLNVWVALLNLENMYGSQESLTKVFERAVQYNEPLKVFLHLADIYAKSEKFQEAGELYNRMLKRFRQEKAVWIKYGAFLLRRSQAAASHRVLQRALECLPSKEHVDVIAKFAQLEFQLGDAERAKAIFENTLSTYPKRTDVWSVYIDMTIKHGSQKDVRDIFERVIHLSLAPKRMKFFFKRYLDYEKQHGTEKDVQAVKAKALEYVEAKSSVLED

Legend:
[1] = target: mCherryC160-HDM2 (BiFC fusion) (UniProt Q00987); experiment: split reporter; BiFC with mCherryN159 and mCherryC160 fusions co-transfected into HCT116 cells
[2] = target: endogenous HDM2 (human (endogenous in HCT116)) (UniProt Q00987); experiment: proximity ligation; PLA of endogenous proteins in a panel of CRC cells harboring wild-type p53
[3] = target: endogenous HDM2 (human (endogenous in HCT116)) (UniProt Q00987); experiment: co-IP; endogenous proteins from HCT116 p53+/+ cell lysate; IP with anti-p53 (DO-1) or anti-HDM2 (D1V2Z); normal IgG as negative control

| binding [1] | binding [2] | binding [3] | Substance |
| --- | --- | --- | --- |
| binds | – | – | mCherryN159-PDCD11 (BiFC fusion) (from UniProt Q14690 1-1871) |
| – | binds | binds | endogenous PDCD11 (from UniProt Q14690 1-1871) |
